The results in this text go back to PMC7963146.

The assay concerns the target adenosine A2A receptor fused to YFP (human) (UniProt P29274). The assay is described as follows: FRET or BRET; BRET between ß-arrestin 2-Rluc and A2AR-YFP in HEK-293T cells that also express CB1R; agonists CGS 21680 and/or ACEA for 2 min, antagonists SCH 58261 or SR 141716A, pretreatment with 1 µM methamphetamine or vehicle for 30 min. (In general: Bioluminescence resonance energy transfer reports proximity on the nanometre scale.)

These are yes or no findings as the source states them, for the method shown. In cells and extracts the contact can be indirect. Some entries that bind do so weakly or less than the wild type.

Consider “ß-arrestin 2 fused to Rluc (from UniProt P32121 1-409)”, for which the binding entry is reported as “binds weakly”.
